Patent US10017453B2, “Pharmaceutically acceptable salts of fatty acids” (Dignity Sciences Limited, priority 2013, dated 2018)

Experiments:
[1] = storage
[2] = 8 Day Stability 40/75% RH of solids from the salt/cocrystal screen; type: physicochemical; details: 8 days

CCCCCC(O)/C=C/C=C\C/C=C\CCCCCCC(=O)O.NCCC[C@H](N)C(=O)O (centres unmarked) [15-HETrE ornithine salt, 15-Hydroxy-eicosa-8(Z),11(Z),13(E)-trienoic acid ornithine salt]
Appearance over time [1]: yellow coloration over time | 8 Day Stability 40/75% RH [2]: 96% purity
